Literature values in patent US11813353B2, “Pharmaceutical compositions for the nasal administration of a cobalamin compound” (INNOTESTO BV, priority 2020, dated 2023).
At least one compound was matched to its structure with a doubt left.

Conditions: as sulfate, as acetate and as hydrochloride; cited from earlier work

## C/C1=C2/[N-][C@H]([C@H](CC(N)=O)[C@@]2(C)CCC(=O)NC[C@@H](C)OP(=O)([O-])O[C@H]2[C@@H](O)[C@@H](n3cnc4cc(C)c(C)cc43)O[C@@H]2CO)[C@]2(C)N=C(/C(C)=C3N=C(/C=C4N=C1[C@@H](CCC(N)=O)C\4(C)C)[C@@H](CCC(N)=O)[C@]\3(C)CC(N)=O)[C@@H](CCC(N)=O)[C@]2(C)CC(N)=O.[Co+3].[OH-] [hydroxocobalamin]
  soluble in water: up to 1:10 w/w
